In one assay the test system is pSTAT5. Briefly: pSTAT5 levels 48 h after IL-2 plus derivatives, flow cytometer. Type of assay: cell-based. Particulars: with IL-2, 48 h. Here is the method: Cells were treated with IL-2 and several derivatives of HOAt. Levels of pSTAT5 were measured 48 h later by flow cytometer.
A general note: A flow cytometer gives signals particle by particle.

In the next assay the test system is latent HIV-1. Put plainly: Reactivation of latent HIV-1 in latently infected cultured TCM (GFP / p24Gag by flow cytometry). Particulars: panel of 7 derivatives of HOBt (FIG. 2D). It is filed as cell-based. The source says:
A novel primary cell model for the study of HIV-1 latency was adapted so as to be suitable for high-throughput screening (HTS) of new compounds that may reactivate HIV-1 from its latency state (Bosque and Planelles, 2009; Bosque and Planelles, 2010; and patent application: Methods and compositions relating to viral latency, Planelles V, Basque A, U.S. Patent Application 2010/0291067 A1, November 2010).
To facilitate HTS, the nef gene was replaced with that encoding the green fluorescent protein (GFP). It was confirmed that deletion of nef has no effect in latency/reactivation (Bosque and Planelles, 2009) and that using GFP provides a faster, more economical, and equally sensitive, as compared to intracellular p24 detection, readout.
The reactivation experiments were modified to be performed in 96-well plates, utilizing 100,000 cells per well. […] Analysis for each well includes (a) green fluorescence as a direct indicator of viral reactivation; and (b) forward and side scatter as general measures of cell morphology, which is a gross indication of viability.
Latently infected cells were generated using healthy, uninfected DONOR 78 cells that were infected with DHIV virus. Reactivation was monitored by analysis of GFP by Flow Cytometry 72 hours after stimulation. […]

Structures are written as SMILES. “Also recorded” adds a separate entry of the source.

Consider `CN(C)C(n1n[n+]([O-])c2ncccc21)=[N+](C)C.F[P-](F)(F)(F)(F)F` [HATU], for which, in the assay with pSTAT5, the “maintenance of pSTAT5 levels” value is given as “maintain pSTAT5 levels in a dose dependent manner”. The “ability to induce viral reactivation compared to the original hit HOBt” value in the assay with latent HIV-1 is “able to induce viral reactivation in a dose dependent manner and with increased efficiency; also recorded: increased ability to induce viral reactivation in a dose dependent manner”.

(Values after US9730928B2, “Trizol-1-OL analogs anti-retroviral latency drugs” (priority 2013, dated 2017).)
